Assay results as given in patent US20060293242A1 (priority 2001, published 2006).
No end group written: not given here.

Experiment: general procedure: Fmoc solid-phase peptide synthesis
Conditions: whole synthesis, analytical HPLC and mass spectrometry

RRLSYSRRRF
final HPLC purity: >95%
